Drawing on patent US20210077582A1, this text covers binding for one molecule.

By UniProt entry, the sequences of proteins in these tests, tags left out.
UniProt Q8R4B8: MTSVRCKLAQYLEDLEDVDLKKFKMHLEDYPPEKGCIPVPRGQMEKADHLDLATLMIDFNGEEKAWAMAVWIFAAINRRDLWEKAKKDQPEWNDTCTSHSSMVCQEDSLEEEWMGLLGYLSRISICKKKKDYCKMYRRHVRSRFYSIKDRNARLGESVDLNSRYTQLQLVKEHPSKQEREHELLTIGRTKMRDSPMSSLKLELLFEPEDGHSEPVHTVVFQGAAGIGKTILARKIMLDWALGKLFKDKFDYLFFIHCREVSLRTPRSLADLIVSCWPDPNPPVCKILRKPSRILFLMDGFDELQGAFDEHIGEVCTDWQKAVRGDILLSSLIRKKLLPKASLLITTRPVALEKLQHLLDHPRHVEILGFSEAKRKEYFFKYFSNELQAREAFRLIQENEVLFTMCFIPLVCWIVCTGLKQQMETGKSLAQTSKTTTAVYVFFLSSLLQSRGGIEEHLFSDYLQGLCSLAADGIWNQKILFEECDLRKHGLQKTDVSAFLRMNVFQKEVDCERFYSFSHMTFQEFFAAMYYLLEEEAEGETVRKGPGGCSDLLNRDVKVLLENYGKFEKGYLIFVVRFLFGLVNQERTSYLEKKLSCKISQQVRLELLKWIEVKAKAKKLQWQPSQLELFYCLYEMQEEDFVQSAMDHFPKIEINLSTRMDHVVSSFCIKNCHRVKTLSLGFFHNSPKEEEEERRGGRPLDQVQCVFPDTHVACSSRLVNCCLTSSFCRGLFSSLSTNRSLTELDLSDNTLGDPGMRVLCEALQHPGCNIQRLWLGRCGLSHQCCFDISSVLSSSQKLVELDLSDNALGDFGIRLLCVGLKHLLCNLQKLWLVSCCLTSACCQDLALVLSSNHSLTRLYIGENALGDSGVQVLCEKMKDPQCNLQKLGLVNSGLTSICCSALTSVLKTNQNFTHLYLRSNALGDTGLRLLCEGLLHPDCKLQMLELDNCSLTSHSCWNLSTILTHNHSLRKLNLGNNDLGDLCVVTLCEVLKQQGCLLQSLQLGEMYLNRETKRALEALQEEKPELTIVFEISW

For the experiment, the target named is NOD-, LRR- and pyrin domain-containing protein-3 (NLRP3) (mouse) (UniProt Q8R4B8). The experiment can be described thus: co-immunoprecipitation: IP of NLRP3 from BRAFV600E PTEN-/- melanoma cell lysate, Western blot for PKR. A general note: In western blotting, separated proteins are transferred to a membrane and probed.

Results are given in words; binding and its absence hold for the method and conditions named. In cells and extracts the contact can be indirect. Some results given as binding are weak or reduced against the parent protein; the word gives no strength.

B1: dsRNA-dependent protein kinase R (PKR) (enzyme, mouse, UniProt Q03963 2-515, looked up)
chain: ASDTPGFYMDKLNKYRQMHGVAITYKELSTSGPPHDRRFTFQVLIDEKEFPEAKGRSKQEARNAAAKLAVDILDNENKVDCHTSASEQGLFVGNYIGLVNSFAQKKKLSVNYEQCEPNSELPQRFICKCKIGQTMYGTGSGVTKQEAKQLAAKEAYQKLLKSPPKTAGTSSSVVTSTFSGFSSSSSMTSNGVSQSAPGSFSSENVFTNGLGENKRKSGVKVSPDDVQRNKYTLDARFNSDFEDIEEIGLGGFGQVFKAKHRIDGKRYAIKRVKYNTEKAEHEVQALAELNHVNIVQYHSCWEGVDYDPEHSMSDTSRYKTRCLFIQMEFCDKGTLEQWMRNRNQSKVDKALILDLYEQIVTGVEYIHSKGLIHRDLKPGNIFLVDERHIKIGDFGLATALENDGKSRTRRTGTLQYMSPEQLFLKHYGKEVDIFALGLILAELLHTCFTESEKIKFFESLRKGDFSNDIFDNKEKSLLKKLLSEKPKDRPETSEILKTLAEWRNISEKKKRNTC
For the molecule B1, the binding result was “binds”.
